Experimental data as given in PubChem BioAssay AID493014 (National Center for Advancing Translational Sciences (NCATS), 2011).
Out of some 340,000 compounds screened, about 170 (0.05%) were called active. Inconclusive results, whose numbers are uncertain, are shown with a selection of clear calls. Calls follow the shape of the dose curve; as a rule, active = well fitted inhibition curve with a large enough effect in the signal ratio, with a control signal flat (not every such curve was filed as active); inconclusive = small, poorly fitted or top-dose-only effect, or effect the other way, or a change in a side signal; inactive = flat fitted curve, though single readings scatter; the % refers to the signal ratio. Potencies beside an inconclusive call are fits to weak or partial responses and may not hold up.

Test: qHTS Assay to Find Inhibitors of Chronic Active B-Cell Receptor Signaling;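 as to activity change, negative = inhibition: plate controls were basal doxycycline-induced cells for no effect and cells given 10 µM MG132 for full effect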
Conditions: ABC-DLBCL IkBa-CBG/CBR reporter, luminescence ratio (green luciferase fused to IkBa over red control in TMD8 lymphoma cells), 4 h; activity change, negative = inhibition: at 46.1 µM (top of the series)
In short: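 TMD8 human ABC-DLBCL cells with doxycycline-inducible IκBα–green luciferase fusion and unfused red luciferase, in 0.5% FBS medium; compounds up to 46 uM, 4 h at 37C. Green/red luminescence ratio, filter-overlap corrected, fitted to concentration-response curves.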
Potency is read from the fitted curve at half-maximal effect.

Compound	activity change, negative = inhibition	Potency
COc1ccc2cc(-c3ccn[nH]3)ccc2c1	inconclusive: -15.1%	–
CC(=O)c1ccc(OCc2cc(C(=O)N3CCCCC3c3cccnc3)no2)cc1 (stereo not drawn)	inactive: 6.74%	–
O=C(CSc1nc2ccccc2c(=O)n1-c1ccccc1F)NC1CCS(=O)(=O)C1 (stereo not drawn)	inconclusive: -9.01%	–
Cc1cccc(-c2noc(CSc3ccccc3)n2)c1	inconclusive: 3.51%	–
Cc1ccc2cc3c(N)c4c(C)ccc(C)c4nc3nc2c1	inconclusive: 10.6%	–
CC(C)(C)c1ccc(NC(=O)CC2(C(F)(F)F)OCCO2)cc1	inconclusive: 6.32%	–
C[C@@H]1CN([C@H](C)CO)C(=O)c2cc(NC(=O)c3ccncc3)ccc2O[C@@H]1CN(C)C(=O)Nc1ccccc1	inconclusive: -0.849%	–
Cc1cc(NC(=O)CSc2nnc(-c3ccccc3)o2)no1	–	inconclusive: 35.5 µM [cytotoxic, single point]
Cc1cc(NC(=O)CCN2C(=O)/C(=C\c3ccccc3Cl)SC2=S)no1	inconclusive: -2.55%	–
O=S(=O)(c1ccc(Cl)c(S(=O)(=O)N2CCCC2)c1)N1CCCC1	inactive: 6.34%	–
CC(=O)Nc1ccc(CN2CCC(Oc3ccc(C(=O)N4CCCC4)cc3)CC2)cc1	inconclusive: 1.69%	–
CCOC(=O)c1ccc(N=Cc2nc3ccccc3n2C)cc1	inactive: -4.49%	–
CCN1CCN(Cc2ccc(NC(=O)c3ccc(C)c(/C=C/c4cnc(Nc5cc(N6CCNCC6)nc(C)n5)cn4)c3)cc2C(F)(F)F)CC1	–	inconclusive: 25.1 µM [falling, single point]
c1ccc(NNC2=NCCS2)cc1	inconclusive: 0.104%	–
CCCCCCN1Cc2ccccc2C1	inconclusive: 1.99%	–
Cn1c(SCC(=O)c2ccccc2)nnc1-c1ccc(O)cc1	inconclusive: 1.85%	–
O=C(NCc1ccc2c(c1)OCO2)c1sccc1Br	inconclusive: -18.4%	–
C[C@@H]1C(c2ccccc2)=NN(c2ccccc2)[C@H]1C(=O)N1CCOC1=O	inactive: -3.28%	–
Cc1ccc(Cl)c(NC(=O)CN(C)CC(=O)Nc2ccc(F)c(F)c2F)c1Cl	inconclusive: 0.0083%	–
CCc1ccc(CNC(=O)C2CCCN(c3nnc(C)c4c(C)n(-c5ccccc5)nc34)C2)cc1 (stereo not drawn)	inconclusive: -4.55%	–
CCOc1ccc(NC(=O)COc2nsnc2N2CCOCC2)cc1	inactive: -10.9%	–
Cc1c(N=C2C=C(Br)C(=O)C(Br)=C2)c(=O)n(-c2ccccc2)n1C	inactive: 8.39%	–
Oc1ccc(/C=N/n2c(C3CCCCC3)n[nH]c2=S)c(O)c1	inconclusive: -2.06%	–
C/C(=N\Nc1nc(C)cc(-c2ccccc2)n1)c1cccc(N)c1	inconclusive: 7.28%	–
COc1ccc(Nc2ncnc3ccc(Br)cc23)c(OC)c1	–	inconclusive: 35.5 µM [rising, single point]
O=C(CCn1cncn1)N1CCCC(N2CCN(c3cccc(C(F)(F)F)c3)CC2)C1 (stereo not drawn)	inactive: -4.6%	–
Cc1ccc(C(=O)N/N=C/c2nc3ccccc3n2C)cc1	inconclusive: 6.57%	–

Compound	activity change, negative = inhibition	Potency
COc1ccccc1NC(=O)c1cc(Br)ccc1Cl	inconclusive: 14.2%	–
CN(c1ccccc1)c1nc(N)c([N+](=O)[O-])c(N2CCCC2)n1	inconclusive: -0.692%	–
COc1ccc(N/C=C(\C#N)c2ccc(OCCCF)cc2)cc1	inconclusive: -12.3%	–
CCOCCCNC(=O)c1cc(=O)n(Cc2cccc(C)c2)c2ccccc12	inactive: -10.9%	–
Cc1nn(C(C)C(=O)c2cccc(Cl)c2)c(C)c1[N+](=O)[O-] (stereo not drawn)	inactive: -1.41%	–
CC(C)(C)NC(=O)COC(=O)/C=C/c1ccccc1[N+](=O)[O-]	inconclusive: 20.3%	–
CN(C)c1nc(N)nc(CSc2n[nH]c(-c3ccccc3)n2)n1	inconclusive: -11.5%	–
N#Cc1nc(COc2ccc(Cl)cc2)oc1N1CCCC1	inconclusive: 15%	–
CN(CC(=O)Nc1n[nH]c(=S)s1)S(=O)(=O)c1cccc2cccnc12	inconclusive: 10.3%	–
O=C(Nc1cccc(-c2csc(Nc3cccc(C(F)(F)F)c3)n2)c1)c1cc([N+](=O)[O-])cc(C(F)(F)F)c1	inactive: 1.78%	–
Cc1cc(NCCCn2ccnc2)n2ncc(-c3ccccc3)c2n1	inconclusive: -16.4%	–
C(=N\Nc1nc(Nc2ccccc2)nc(N2CCCCC2)n1)/c1ccco1	–	inconclusive: 25.1 µM [rising, single point]
Cn1ncc2c(Nc3ccccc3Br)ncnc21	–	inconclusive: 25.9 µM [falling, partial curve, poor fit]
Cc1ccc(-n2c(-c3ccc(Br)cc3)c[n+]3c2CCc2ccc4cccnc4c2-3)cc1	–	inconclusive: 28.2 µM [falling, single point]
O=C(Nc1cccc2ccccc12)c1onc2c1CCCC2	–	inconclusive: 23.1 µM [falling, partial curve]
O=C(Nc1ccccc1Cl)C(=O)c1cn(CC(=O)N2CCOCC2)c2ccccc12	–	inconclusive: 17.8 µM [falling, partial curve]
O=C(CSCc1ccccc1)Nc1cccc(C(=O)Nc2ccccc2C(=O)O)c1	inconclusive: -25.1%	–
COC(=O)[C@@]1(Cc2ccc(F)cc2)[C@H]2c3cc(C(=O)N(C)C)n(Cc4ccc(OC(F)(F)F)cc4)c3C[C@H]2CN1C(=O)c1ccccc1	inconclusive: -9.33%	–
COc1cc(C)ccc1NC(=O)c1ccc(S(=O)(=O)N2CCOCC2)cc1	inactive: -1.11%	–
CCCCOc1ccc(C(C)NC(=O)CN2C(=O)CSc3ccc(S(=O)(=O)N4CCOCC4)cc32)cc1 (stereo not drawn)	inconclusive: 4.93%	–
CC(C)(C)c1ccc(O)c(N=Cc2cc3c(cc2[N+](=O)[O-])OCO3)c1	inactive: -6.5%	–
CN(C)S(=O)(=O)c1ccc(C(=O)Nc2cccnc2)cc1	inconclusive: 13.3%	–
CN(C(=O)c1ccccc1C(=O)OCC(=O)NC(=O)NC(C)(C)C)C1CCCCC1	inconclusive: 2.26%	–
CSCCC(NC(=O)c1ccc(Cl)cc1)C(=O)OCC(=O)c1ccc[nH]1 (stereo not drawn)	inconclusive: -2.1%	–
COc1ccc(C(=O)OCC(=O)N2CCc3ccccc3C2)cc1OC	inconclusive: 0.0097%	–
CCOC(=O)c1ccc(C(=O)NNC(=O)C2C3C=CC(C3)C2C(=O)O)cc1 (stereo not drawn)	inconclusive: -3.36%	–

Entries of single compounds, looked up by structure. Order of values: activity change, negative = inhibition	Potency
CCCCOc1ccc(C(C)NC(=O)CN2C(=O)CSc3ccc(S(=O)(=O)N4CCOCC4)cc32)cc1 (stereo not drawn) is entered as inconclusive: 4.93%	–
CN(c1ccccc1)c1nc(N)c([N+](=O)[O-])c(N2CCCC2)n1 is entered as inconclusive: -0.692%	–
CC(C)(C)c1ccc(O)c(N=Cc2cc3c(cc2[N+](=O)[O-])OCO3)c1 is entered as inactive: -6.5%	–
Oc1ccc(/C=N/n2c(C3CCCCC3)n[nH]c2=S)c(O)c1 is entered as inconclusive: -2.06%	–
